This is an account of results in the supplement of paper PMC6411743.

By UniProt entry, the sequences of proteins in these tests, tags left out. Where a name states a change or a piece, a line headed by the entry shows the natural chain unless it says otherwise.
UniProt Q9C0E2: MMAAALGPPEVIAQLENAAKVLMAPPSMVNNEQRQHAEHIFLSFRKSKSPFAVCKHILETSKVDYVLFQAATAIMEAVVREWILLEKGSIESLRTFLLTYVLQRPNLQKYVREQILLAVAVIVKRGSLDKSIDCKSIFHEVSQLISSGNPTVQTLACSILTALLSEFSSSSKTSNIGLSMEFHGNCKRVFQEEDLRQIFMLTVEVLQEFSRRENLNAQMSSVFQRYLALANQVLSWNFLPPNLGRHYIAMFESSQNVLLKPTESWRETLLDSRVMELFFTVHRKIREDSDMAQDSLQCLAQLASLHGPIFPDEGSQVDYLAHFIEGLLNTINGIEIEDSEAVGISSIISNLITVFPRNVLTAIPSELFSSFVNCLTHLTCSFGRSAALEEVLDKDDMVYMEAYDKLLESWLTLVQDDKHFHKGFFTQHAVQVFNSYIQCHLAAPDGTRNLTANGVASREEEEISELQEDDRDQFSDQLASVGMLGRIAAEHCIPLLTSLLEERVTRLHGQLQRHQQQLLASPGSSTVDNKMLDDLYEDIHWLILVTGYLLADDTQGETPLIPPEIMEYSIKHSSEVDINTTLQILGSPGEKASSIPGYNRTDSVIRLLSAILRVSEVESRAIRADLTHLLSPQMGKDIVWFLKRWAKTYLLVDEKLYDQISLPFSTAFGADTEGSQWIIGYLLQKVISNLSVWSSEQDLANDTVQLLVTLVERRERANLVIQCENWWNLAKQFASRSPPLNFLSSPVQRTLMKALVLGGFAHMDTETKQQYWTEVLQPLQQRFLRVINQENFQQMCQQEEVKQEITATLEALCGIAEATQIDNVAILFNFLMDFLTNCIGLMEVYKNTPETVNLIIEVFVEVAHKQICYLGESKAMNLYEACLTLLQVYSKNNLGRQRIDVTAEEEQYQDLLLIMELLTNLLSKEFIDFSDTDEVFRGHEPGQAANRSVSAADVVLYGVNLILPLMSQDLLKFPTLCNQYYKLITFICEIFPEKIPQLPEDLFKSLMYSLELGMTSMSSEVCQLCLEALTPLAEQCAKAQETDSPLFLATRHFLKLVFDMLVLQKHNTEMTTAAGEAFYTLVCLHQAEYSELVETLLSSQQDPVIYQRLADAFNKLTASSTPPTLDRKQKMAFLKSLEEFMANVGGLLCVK
UniProt O15014: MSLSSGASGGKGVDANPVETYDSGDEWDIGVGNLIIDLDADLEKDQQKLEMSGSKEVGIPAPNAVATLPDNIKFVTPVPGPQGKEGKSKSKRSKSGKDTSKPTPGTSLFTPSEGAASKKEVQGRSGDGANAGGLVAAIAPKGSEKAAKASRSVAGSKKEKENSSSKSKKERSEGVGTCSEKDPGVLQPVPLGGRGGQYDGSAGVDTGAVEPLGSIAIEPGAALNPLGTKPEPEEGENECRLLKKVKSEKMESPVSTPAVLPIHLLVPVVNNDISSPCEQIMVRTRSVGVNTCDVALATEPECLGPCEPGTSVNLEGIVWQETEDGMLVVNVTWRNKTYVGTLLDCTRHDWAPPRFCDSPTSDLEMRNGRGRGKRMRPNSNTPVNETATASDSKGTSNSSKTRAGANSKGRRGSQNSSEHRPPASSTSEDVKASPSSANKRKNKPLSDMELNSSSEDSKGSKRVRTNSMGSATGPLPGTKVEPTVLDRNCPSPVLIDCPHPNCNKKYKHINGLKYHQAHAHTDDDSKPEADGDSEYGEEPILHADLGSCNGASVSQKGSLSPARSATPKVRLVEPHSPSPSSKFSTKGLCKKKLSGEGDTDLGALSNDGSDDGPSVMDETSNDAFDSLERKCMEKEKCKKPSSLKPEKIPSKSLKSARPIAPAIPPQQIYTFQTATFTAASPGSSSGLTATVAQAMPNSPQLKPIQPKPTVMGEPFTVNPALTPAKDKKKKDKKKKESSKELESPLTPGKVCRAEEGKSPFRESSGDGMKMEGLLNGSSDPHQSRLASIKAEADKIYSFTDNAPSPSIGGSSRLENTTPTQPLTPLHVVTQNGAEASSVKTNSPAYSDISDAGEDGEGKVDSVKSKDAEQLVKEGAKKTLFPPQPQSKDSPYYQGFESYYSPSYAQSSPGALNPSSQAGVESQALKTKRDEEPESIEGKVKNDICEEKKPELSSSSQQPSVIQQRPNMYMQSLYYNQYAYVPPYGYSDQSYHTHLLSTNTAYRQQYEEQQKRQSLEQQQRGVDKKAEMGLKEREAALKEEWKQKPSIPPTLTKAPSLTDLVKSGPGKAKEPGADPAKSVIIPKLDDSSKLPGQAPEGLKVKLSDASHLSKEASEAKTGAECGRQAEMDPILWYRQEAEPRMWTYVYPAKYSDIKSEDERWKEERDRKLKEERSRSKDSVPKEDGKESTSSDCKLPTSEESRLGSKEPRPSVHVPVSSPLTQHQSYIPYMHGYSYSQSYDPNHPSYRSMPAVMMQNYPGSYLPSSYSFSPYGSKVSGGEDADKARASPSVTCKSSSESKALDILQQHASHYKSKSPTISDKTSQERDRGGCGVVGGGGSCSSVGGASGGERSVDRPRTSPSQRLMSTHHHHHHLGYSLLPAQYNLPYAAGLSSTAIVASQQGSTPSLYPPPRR
UniProt P51003: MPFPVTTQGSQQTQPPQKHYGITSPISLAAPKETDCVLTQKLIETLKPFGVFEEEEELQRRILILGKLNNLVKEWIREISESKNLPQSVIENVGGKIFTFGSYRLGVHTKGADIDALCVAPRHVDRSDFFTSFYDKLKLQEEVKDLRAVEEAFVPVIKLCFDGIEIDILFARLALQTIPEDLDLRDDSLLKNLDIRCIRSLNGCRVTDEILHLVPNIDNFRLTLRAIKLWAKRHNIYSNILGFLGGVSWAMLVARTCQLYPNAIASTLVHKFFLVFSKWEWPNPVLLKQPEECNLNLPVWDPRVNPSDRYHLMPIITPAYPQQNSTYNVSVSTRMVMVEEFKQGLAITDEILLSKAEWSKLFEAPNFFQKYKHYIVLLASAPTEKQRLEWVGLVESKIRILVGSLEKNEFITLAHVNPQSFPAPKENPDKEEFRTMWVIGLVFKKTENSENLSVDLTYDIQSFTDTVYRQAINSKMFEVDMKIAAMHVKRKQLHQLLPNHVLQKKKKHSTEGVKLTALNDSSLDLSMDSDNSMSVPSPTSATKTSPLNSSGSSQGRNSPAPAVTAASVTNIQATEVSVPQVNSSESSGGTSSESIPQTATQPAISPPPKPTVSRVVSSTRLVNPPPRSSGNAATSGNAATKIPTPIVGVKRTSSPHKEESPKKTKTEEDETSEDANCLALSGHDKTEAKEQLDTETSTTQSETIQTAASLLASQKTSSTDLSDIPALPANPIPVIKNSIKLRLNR
UniProt P49959: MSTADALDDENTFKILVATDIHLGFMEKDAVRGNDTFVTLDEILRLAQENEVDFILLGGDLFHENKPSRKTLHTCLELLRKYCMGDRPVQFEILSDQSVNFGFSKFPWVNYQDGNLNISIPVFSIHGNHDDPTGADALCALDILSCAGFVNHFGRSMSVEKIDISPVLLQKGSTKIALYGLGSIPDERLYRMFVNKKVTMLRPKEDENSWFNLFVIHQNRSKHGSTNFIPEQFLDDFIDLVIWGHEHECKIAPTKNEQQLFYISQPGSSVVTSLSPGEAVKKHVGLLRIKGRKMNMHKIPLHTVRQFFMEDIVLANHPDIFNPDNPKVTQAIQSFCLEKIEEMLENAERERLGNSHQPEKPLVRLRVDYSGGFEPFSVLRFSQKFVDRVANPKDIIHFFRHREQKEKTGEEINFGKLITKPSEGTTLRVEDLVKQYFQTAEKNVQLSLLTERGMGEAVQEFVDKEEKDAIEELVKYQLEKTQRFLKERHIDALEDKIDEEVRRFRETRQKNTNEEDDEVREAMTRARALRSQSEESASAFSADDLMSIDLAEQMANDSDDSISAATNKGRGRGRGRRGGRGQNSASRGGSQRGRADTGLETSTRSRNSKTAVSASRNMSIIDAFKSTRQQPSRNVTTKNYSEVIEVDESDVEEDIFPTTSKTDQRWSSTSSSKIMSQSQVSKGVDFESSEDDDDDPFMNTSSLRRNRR
UniProt P22234: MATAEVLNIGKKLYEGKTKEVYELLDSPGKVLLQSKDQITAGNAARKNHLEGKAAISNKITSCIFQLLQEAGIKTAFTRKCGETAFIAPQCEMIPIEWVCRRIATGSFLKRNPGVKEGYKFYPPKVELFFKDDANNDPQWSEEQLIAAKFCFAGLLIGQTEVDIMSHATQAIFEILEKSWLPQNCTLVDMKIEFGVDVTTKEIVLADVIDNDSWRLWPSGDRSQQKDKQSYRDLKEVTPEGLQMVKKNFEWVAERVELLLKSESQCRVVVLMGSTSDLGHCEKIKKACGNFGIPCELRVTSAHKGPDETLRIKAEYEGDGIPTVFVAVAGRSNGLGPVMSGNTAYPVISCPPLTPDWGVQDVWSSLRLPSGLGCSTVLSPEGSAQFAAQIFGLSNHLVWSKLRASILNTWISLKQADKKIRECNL
UniProt P11117: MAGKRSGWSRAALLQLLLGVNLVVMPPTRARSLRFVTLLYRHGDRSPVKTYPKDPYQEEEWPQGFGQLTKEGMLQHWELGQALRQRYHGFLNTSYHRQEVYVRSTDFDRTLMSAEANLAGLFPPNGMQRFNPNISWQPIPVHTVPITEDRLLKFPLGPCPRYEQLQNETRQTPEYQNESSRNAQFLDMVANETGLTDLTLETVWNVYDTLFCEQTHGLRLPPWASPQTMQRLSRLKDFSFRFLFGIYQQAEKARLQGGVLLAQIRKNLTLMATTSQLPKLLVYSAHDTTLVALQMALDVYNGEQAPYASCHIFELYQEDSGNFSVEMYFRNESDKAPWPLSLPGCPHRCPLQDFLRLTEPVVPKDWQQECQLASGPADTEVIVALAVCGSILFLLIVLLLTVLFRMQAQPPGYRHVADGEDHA
UniProt Q8N9N8: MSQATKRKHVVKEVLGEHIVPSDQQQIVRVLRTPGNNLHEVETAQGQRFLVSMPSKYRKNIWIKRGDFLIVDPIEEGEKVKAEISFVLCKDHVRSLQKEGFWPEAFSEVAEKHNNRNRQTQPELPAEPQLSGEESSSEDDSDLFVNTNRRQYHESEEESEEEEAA
UniProt P04216: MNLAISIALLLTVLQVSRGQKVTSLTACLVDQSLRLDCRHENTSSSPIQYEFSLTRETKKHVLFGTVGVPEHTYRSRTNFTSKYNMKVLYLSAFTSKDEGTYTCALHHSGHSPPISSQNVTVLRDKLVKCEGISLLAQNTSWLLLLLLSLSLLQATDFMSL
UniProt Q7Z589: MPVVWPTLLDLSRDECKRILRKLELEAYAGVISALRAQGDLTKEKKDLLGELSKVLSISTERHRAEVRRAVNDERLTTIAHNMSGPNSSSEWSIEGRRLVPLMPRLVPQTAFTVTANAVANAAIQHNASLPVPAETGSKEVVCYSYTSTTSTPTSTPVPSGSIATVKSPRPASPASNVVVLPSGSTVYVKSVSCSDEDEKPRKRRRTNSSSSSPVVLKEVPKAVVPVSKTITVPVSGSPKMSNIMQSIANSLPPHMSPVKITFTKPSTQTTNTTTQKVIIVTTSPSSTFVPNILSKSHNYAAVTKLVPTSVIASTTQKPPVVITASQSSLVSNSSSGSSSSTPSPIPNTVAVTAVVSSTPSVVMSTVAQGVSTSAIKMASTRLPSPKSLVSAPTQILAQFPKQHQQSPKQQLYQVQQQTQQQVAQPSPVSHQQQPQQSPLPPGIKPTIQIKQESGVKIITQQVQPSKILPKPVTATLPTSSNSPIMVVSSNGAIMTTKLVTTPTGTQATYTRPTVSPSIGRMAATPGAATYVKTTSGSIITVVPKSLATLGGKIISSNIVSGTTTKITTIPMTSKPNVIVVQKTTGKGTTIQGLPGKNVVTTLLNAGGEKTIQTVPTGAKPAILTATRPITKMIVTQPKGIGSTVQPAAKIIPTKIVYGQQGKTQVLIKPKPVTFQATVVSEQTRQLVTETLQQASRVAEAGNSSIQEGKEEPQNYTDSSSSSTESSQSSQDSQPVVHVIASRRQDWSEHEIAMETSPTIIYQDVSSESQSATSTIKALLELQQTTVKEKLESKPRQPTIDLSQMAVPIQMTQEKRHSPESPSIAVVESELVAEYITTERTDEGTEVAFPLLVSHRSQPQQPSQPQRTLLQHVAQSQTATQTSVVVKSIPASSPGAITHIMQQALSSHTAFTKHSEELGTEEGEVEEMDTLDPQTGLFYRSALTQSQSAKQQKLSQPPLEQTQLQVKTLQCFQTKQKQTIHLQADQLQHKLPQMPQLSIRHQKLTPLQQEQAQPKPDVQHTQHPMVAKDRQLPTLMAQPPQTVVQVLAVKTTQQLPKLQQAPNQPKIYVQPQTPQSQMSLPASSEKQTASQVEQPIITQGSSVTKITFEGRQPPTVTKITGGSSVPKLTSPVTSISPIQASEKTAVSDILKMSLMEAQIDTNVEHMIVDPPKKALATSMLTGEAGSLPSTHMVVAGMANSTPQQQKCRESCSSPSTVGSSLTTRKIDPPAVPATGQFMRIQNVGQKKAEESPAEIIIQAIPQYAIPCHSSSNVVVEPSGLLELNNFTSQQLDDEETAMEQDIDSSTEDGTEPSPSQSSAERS

± gives the standard deviation of the averaged measurements. Only a part is listed here, and it is no random draw. Most values lie at the level of the controls, where differences are scatter.

Compound in this assay: Nc1ncnc2c1ncn2[C@@H]1O[C@H](COP(=O)(O)OP(=O)(O)OP(=O)(O)O)[C@@H](O)[C@H]1O [adenosine triphosphate]
As to the kind of experiment: NP40-soluble protein abundance relative to vehicle (solubility fold change) (ratio); higher = more soluble protein in presence of ATP. Conditions: concentration: 0.1mM. A digest of the protocol:
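Across three independent experiments, values are fold changes against the detergent-processed vehicle for each replicate, based on vsn-normalised intensities. The samples were Jurkat crude lysate treated with eight concentrations (0.1 to 10 mM) for 10 min at room temperature and then 3 min at 37 °C. Lysate was solubilised with 0.8% NP40 and benzonase, ultracentrifuged, and the supernatant analysed by TMT-labelled LC-MS/MS.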
Take “F5H5U2 and related entries (UniProt Q8NHQ9)”: the NP40-soluble protein abundance amounted to 1.02 ± 0.031. With “E9PF32 and related entries (UniProt A2RUS2)” the figure was 0.996 ± 0.072; with “F2Z2X4 and related entries (UniProt Q9C0E2)”, 1.06 ± 0.074. Under “F2Z388 and related entries (UniProt P42766)” stands 0.984 ± 0.052. Under “E7EU96 and related entries (UniProt P68400)” stands 1.05 ± 0.066; under “G3V1S4 and related entries (UniProt Q9Y324)”, 1.02 ± 0.14. For the target “G3V5T9 and related entries (UniProt P24941)”, the NP40-soluble protein abundance amounted to 1.01 ± 0.077. With “E9PS74 and related entries (UniProt Q8NBI5)” the figure was 0.995 ± 0.019; with “G0XQ39 and related entries (UniProt Q13586)”, 1 ± 0.032.

Turning to “E9PMR4 and related entries (UniProt P48509)”, the NP40-soluble protein abundance is 0.985 ± 0.073. Under “E7ERY8 and related entries (UniProt O15014)” stands 1.027 ± 0.0035. “E9PDQ8 and related entries (UniProt Q96I99)”: the NP40-soluble protein abundance was found to be 1.02 ± 0.041. Under “F5H269 and related entries (UniProt Q9Y485)” stands 1.03 ± 0.018; under “E7EX90 and related entries (UniProt Q14203)”, 0.957 ± 0.032. With “G3XAH6 and related entries (UniProt P51003)” the figure was 1 ± 0.034; with “E7ERD7 and related entries (UniProt Q9UKU0)”, 1.03 ± 0.027. With “E9PRF4 and related entries (UniProt Q15047)” the figure was 1.06 ± 0.025; with “F1T0I1 and related entries (UniProt O15027)”, 0.995 ± 0.031. For the target “E7EQR8 and related entries (UniProt Q9GZM5)”, the NP40-soluble protein abundance was 1.05 ± 0.029. Under “F8W543 and related entries (UniProt P55209)” stands 0.958 ± 0.027. In the case of “E7EQ69 and related entries (UniProt Q9GZZ1)”, the NP40-soluble protein abundance was determined as 0.9163 ± 0.00094. With “F5GWA4 and related entries (UniProt Q9H3F6)” the figure was 1.1 ± 0.031. With “F8W7U8 and related entries (UniProt P49959)” the figure was 1.03 ± 0.038; with “E9PC69 and related entries (UniProt Q7KZI7)”, 1.1 ± 0.061; with “E9PBS1 and related entries (UniProt P22234)”, 1.01 ± 0.082. With F8WC89 (UniProt A6NKF1) the figure was 1.02 ± 0.046; with “E9PQY3 and related entries (UniProt P11117)”, 0.97 ± 0.029; with “E9PLI6 and related entries (UniProt Q8N9N8)”, 1.01 ± 0.026. E9PJD7 (UniProt P0DTL6): the NP40-soluble protein abundance worked out at 1.07 ± 0.066. Under “E9PIM6 and related entries (UniProt P04216)” stands 0.831 ± 0.021; under “E7ESC7 and related entries (UniProt Q7L5Y9)”, 0.98 ± 0.057.

Consider “G3V3M6 and related entries (UniProt P27695)”, for which the NP40-soluble protein abundance turned out to be 0.971 ± 0.052. With “F5H1D6 and related entries (UniProt Q07864)” the figure was 1.1 ± 0.053; with “D6RIE5 and related entries (UniProt Q9ULK6)”, 0.884 ± 0.032.

For “E5RHW4 and related entries (UniProt O94905)”, the NP40-soluble protein abundance was determined as 0.968 ± 0.085. For the target UniProt G3V599, the NP40-soluble protein abundance amounted to 0.971 ± 0.0096. Under “E9PMC9 and related entries (UniProt Q7Z589)” stands 0.936 ± 0.12; under G3V3G9 (UniProt P40855), 1.02 ± 0.05.
